From publication PMC7994445 come the findings set out here.

The chains behind the UniProt entries cited, without tags or fusion partners. Where a name states a change or a piece, a line headed by the entry shows the natural chain unless it says otherwise.
UniProt Q8I4X0: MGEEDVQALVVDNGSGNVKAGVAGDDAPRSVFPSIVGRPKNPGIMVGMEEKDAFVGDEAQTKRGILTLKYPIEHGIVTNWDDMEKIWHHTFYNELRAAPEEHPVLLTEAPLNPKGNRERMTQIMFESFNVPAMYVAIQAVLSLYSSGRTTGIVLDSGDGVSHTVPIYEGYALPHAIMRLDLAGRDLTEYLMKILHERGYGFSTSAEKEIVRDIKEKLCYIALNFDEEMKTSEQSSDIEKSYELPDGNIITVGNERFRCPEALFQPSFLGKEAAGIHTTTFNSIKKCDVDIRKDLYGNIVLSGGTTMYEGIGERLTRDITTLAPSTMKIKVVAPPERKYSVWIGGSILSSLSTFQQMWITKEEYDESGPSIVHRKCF
UniProt Q8IDR3: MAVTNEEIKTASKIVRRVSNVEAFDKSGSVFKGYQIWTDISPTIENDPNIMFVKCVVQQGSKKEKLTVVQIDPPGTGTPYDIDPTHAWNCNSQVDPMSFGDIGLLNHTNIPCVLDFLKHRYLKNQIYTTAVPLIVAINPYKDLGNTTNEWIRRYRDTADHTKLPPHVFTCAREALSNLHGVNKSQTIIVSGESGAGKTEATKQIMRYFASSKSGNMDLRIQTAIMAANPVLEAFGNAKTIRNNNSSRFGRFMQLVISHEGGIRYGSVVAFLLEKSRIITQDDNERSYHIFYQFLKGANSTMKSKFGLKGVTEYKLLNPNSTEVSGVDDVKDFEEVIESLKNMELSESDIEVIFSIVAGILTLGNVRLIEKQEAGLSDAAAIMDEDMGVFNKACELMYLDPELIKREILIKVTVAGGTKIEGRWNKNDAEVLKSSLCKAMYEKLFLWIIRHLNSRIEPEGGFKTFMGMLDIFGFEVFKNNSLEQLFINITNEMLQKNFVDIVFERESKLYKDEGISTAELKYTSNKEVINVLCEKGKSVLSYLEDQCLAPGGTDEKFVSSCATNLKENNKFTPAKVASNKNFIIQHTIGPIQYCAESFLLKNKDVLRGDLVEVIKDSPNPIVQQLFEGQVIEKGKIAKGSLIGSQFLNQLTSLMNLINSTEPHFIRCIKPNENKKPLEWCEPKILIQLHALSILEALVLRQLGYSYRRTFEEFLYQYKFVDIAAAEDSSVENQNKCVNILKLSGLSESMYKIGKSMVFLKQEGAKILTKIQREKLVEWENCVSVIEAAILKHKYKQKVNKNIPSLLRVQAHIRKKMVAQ

These are yes or no findings as the source states them, for the method shown. Some binding calls cover weakened binding; strength is not graded here.

The assay addresses PfActin-1 filaments (Plasmodium falciparum) (UniProt Q8I4X0). In words: cryo-EM micrographs of filament decoration; screen of PfMyoA constructs incubated in solution with skeletal F-actin or PfAct1 filaments, vitrified within 15 min; occupancy judged from micrographs and 2D classes; both purified.

As to “PfMyoA full-length protein (from UniProt Q8IDR3 1-818)”, the binding entry is on record as “binds”.
To “PfMyoA motor domain (from UniProt Q8IDR3 1-768) (domain or fragment)” belongs “binds”.
